Measured values taken from the supplement of paper PMC10849652.
Some of the results follow.

The chains behind the UniProt entries cited, without tags or fusion partners. Where a name states a change or a piece, a line headed by the entry shows the natural chain unless it says otherwise.
UniProt Q9H000: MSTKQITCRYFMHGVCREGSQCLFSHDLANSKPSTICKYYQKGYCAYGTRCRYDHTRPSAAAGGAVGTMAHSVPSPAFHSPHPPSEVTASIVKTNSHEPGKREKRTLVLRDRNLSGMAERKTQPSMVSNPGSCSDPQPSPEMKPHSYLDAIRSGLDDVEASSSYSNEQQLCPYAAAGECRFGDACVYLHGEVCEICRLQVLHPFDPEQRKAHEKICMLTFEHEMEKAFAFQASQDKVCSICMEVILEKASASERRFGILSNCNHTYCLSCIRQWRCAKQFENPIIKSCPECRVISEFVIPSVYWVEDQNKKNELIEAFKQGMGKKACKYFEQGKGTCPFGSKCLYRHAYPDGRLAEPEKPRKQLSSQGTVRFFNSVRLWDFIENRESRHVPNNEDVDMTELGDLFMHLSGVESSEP
UniProt Q7L1V2: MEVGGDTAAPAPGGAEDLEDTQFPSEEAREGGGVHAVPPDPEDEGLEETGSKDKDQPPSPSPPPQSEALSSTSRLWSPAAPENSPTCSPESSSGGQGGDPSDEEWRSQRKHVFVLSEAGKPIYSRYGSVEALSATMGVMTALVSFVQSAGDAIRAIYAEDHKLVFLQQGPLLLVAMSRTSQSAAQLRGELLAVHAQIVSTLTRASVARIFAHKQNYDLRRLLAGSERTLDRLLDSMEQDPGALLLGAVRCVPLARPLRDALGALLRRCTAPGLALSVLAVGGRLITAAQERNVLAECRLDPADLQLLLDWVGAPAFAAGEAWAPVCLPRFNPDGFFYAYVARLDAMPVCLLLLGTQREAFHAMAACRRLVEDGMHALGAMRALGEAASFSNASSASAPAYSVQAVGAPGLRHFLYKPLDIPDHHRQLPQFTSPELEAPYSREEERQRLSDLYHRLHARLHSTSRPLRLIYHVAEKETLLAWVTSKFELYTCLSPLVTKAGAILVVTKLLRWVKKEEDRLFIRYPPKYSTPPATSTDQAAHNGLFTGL
UniProt Q9UH92: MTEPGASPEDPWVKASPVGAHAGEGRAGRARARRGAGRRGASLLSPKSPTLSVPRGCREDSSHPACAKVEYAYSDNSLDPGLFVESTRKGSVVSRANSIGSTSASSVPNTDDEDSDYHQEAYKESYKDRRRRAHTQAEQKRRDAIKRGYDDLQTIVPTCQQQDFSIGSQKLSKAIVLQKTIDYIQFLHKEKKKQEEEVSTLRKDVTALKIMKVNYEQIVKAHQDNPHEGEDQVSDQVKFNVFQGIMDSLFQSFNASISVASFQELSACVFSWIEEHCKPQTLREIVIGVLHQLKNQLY
UniProt A9UHW6: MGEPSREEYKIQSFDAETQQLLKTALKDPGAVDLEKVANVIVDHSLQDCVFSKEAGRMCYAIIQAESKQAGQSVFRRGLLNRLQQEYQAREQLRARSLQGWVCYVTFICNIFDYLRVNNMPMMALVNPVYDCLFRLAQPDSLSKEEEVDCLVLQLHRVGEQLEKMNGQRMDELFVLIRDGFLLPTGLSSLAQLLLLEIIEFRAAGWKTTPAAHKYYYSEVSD
UniProt Q9NYP9: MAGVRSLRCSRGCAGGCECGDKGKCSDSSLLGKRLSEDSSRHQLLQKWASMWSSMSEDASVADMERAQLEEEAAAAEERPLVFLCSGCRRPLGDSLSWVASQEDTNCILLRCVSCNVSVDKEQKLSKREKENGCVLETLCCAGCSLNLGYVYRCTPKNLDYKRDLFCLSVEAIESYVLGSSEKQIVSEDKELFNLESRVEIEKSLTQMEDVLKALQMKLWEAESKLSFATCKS
UniProt Q6WCQ1: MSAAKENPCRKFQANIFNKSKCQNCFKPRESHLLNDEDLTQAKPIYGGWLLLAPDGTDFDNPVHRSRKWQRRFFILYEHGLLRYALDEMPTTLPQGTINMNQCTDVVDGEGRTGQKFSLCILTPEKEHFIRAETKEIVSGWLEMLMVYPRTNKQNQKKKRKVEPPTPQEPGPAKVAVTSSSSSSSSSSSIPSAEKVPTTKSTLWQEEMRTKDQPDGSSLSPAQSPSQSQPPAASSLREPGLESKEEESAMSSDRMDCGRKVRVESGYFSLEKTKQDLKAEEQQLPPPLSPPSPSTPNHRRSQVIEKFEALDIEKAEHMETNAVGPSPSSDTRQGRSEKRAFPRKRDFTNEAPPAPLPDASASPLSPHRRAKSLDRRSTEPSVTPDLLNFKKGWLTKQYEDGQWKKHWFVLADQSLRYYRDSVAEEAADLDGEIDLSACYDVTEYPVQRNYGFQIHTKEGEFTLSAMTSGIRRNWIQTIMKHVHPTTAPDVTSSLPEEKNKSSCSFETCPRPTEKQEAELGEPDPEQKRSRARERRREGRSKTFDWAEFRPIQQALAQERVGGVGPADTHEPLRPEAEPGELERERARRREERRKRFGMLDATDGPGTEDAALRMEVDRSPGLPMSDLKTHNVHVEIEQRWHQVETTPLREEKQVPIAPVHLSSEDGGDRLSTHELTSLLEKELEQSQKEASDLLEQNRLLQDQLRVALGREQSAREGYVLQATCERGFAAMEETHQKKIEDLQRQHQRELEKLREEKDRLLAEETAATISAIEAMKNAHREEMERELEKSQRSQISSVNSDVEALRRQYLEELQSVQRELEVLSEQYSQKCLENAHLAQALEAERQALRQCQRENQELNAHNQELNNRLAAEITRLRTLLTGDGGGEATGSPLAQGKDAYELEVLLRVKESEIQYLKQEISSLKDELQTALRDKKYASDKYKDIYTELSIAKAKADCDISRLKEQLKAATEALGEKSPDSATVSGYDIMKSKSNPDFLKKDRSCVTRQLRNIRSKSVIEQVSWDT
UniProt Q9HC36: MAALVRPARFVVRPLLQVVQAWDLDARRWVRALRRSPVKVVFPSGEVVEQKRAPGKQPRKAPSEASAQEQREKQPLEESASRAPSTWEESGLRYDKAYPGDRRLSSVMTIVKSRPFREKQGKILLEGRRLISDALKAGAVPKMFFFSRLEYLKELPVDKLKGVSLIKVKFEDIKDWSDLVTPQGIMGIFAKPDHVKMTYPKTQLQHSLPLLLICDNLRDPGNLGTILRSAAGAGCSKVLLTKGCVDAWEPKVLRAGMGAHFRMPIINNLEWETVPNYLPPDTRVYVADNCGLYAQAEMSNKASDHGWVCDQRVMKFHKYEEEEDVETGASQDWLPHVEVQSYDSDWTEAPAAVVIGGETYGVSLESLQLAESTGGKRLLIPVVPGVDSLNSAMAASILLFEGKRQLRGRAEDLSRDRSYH
UniProt Q9NXC5: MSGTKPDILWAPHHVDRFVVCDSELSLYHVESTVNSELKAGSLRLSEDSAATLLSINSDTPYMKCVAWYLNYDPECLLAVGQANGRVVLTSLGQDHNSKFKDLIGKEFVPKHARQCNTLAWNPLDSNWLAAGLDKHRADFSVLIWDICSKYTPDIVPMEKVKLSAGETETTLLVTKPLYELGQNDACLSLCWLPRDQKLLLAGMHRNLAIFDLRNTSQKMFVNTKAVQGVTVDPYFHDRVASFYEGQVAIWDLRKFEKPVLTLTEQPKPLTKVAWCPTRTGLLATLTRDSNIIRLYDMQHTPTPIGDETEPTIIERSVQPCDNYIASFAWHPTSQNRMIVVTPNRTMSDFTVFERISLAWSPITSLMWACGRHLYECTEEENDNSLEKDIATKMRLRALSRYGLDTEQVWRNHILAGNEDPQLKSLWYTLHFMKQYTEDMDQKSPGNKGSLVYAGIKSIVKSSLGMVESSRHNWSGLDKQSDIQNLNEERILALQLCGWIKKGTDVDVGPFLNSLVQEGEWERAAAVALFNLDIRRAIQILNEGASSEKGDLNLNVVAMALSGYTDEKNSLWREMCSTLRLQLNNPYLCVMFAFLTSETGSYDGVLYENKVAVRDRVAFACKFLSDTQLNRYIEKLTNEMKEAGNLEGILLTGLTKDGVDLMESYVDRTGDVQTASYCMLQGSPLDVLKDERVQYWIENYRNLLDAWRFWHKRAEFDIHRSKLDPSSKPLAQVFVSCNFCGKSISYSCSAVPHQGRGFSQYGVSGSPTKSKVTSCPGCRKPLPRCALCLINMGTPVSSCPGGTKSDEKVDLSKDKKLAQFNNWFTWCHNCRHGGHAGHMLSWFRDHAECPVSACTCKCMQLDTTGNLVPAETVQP
UniProt Q14165: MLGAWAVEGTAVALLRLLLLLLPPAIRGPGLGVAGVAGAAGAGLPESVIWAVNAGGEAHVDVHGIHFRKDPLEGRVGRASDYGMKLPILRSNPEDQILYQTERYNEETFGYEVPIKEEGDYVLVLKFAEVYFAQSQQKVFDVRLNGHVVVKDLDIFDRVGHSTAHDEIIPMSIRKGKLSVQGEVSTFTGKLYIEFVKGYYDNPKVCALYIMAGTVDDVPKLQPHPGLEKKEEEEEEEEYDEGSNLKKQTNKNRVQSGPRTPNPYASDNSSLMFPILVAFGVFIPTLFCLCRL
UniProt P49959: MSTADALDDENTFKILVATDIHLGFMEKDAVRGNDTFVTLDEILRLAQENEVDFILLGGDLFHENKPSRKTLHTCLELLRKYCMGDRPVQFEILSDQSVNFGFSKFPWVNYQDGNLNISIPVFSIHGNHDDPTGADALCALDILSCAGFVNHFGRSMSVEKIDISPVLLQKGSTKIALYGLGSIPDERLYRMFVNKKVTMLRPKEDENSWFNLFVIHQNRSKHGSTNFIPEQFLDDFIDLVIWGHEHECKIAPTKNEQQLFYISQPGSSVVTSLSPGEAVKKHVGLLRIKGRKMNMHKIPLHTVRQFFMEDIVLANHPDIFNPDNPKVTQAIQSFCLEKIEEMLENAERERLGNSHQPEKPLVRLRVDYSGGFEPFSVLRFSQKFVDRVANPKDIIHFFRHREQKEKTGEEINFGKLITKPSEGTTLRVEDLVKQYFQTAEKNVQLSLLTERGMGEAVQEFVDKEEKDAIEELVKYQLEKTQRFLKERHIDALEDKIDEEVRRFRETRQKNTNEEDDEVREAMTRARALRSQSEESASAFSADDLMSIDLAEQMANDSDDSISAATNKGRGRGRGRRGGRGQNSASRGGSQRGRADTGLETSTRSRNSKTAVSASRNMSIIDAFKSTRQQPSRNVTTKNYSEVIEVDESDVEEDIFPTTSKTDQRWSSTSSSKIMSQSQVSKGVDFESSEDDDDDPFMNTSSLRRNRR
UniProt Q99547: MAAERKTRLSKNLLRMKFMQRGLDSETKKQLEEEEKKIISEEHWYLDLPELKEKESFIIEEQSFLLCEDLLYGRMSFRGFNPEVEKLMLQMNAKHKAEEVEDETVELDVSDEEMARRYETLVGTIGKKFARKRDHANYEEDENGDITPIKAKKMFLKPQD
UniProt Q9BPX6: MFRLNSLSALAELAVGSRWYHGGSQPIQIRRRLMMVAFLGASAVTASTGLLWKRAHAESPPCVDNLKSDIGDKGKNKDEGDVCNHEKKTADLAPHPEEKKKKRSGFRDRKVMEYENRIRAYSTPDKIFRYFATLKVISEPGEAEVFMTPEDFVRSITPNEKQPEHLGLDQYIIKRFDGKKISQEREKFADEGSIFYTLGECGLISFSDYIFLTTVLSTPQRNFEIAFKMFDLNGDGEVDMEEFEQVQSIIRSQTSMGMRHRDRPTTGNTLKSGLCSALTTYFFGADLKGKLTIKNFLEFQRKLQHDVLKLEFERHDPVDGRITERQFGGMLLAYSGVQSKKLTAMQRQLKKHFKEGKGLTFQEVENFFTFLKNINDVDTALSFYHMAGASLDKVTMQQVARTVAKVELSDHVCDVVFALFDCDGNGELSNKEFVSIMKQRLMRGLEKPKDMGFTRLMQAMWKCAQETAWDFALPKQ
UniProt Q9Y3A3: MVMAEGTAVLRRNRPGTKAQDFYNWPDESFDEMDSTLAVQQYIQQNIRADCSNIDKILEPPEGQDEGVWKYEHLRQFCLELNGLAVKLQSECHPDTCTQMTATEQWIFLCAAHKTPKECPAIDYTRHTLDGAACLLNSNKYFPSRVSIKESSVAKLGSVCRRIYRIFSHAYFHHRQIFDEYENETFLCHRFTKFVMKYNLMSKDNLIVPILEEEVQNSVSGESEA
UniProt O75352: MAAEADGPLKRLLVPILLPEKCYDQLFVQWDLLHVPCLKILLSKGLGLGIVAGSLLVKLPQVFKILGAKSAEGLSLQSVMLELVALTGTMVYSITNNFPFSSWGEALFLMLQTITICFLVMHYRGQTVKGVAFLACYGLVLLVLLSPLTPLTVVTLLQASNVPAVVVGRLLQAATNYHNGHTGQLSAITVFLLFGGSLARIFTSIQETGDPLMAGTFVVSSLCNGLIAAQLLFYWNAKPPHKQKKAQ
UniProt Q8TAP9: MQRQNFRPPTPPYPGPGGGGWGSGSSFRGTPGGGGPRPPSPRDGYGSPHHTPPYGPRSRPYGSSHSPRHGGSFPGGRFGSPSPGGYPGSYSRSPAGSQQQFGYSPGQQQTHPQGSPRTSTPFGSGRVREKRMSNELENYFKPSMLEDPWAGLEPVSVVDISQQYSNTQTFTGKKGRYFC
UniProt Q5XKP0: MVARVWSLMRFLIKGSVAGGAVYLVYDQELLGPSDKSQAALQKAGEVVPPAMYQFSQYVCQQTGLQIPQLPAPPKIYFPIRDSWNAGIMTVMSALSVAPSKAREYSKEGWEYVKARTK

How the values were obtained:
Test in all cases: log2 fold change, soluble protein after heating vs DMSO (PISA); higher = thermal stabilisation; K562 cells, 10 uM, 30 min; active = over 0.2 and 3.5 SD of the protein, either way, in both replicates (recomputed)
erlotinib = compound: C#Cc1cccc(Nc2ncnc3cc(OCCOC)c(OCCOC)cc23)c1 [erlotinib]
Procedure, shortened: (§1)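 Values are thermal stability changes relative to control samples and are taken from duplicates. They are stated as log2 fold changes. Before quantification by TMTpro 16plex LC-MS/MS with equalised channel sums, K562 cells at 2×10^6 cells/mL were treated with 10 μM compound for 30 min, heated in aliquots for 3 min across 48°C-58°C, pooled, extracted in PBS with 0.5% NP-40 at 4°C, and centrifuged at 21,000xg for 90 min to give the soluble supernatant.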

[1] = compound: C/C(=N\NC(=O)C1=CC(=CC=C1)S(=O)(=O)N2CCOCC2)/C3=C(C=CC(=C3)Cl)O
Procedure, shortened: as §1

[2] = compound: C1=CC(=C(C=C1Cl)C2=NC3=NC=CN=C3C(=N2)NC4=CC=NC=C4)F
Procedure, shortened: as §1

[3] = compound: C1=CC(=CC=C1C2=NC3=C(N2)C=C(C=C3)C(=O)N)OC4=CC=C(C=C4)Cl
Procedure, shortened: as §1

[4] = compound: C1=CC2=C(C=CC(=C2)/C=C\3/C(=O)NC(=NCC4=CC=CS4)S3)N=C1
Procedure, shortened: as §1

[5] = compound: C1=CC2=NC=CN=C2C=C1/C=C/3\C(=O)NC(=O)S3
Procedure, shortened: as §1

[6] = compound: C1=CC=C(C=C1)C2=NC(=C(N2)C3=CC=NC=C3)C4=CC(=C(C=C4)Cl)O
Procedure, shortened: as §1

[7] = compound: C1=CC=C2C(=C1)C3=NNC4=CC=CC(=C43)C2=O
Procedure, shortened: as §1

[8] = compound: C1CCN(C1)C(=O)NC2=CC=CC(=C2)NC3=NC=C(C(=N3)NCCC4=CN=CN4)Br
Procedure, shortened: as §1

[9] = compound: C1CN(CCC1(CC2=CC=C(C=C2)Cl)N)C3=NC=NC4=C3C=CN4
Procedure, shortened: as §1

Measured: log2 fold change

MKRN2 (UniProt Q9H000)
inactive: erlotinib -0.038 | [1] 0.057 | [2] -0.16 | [3] 0.013 | [4] -0.058 | [5] 0.002 | [6] -0.011 | [7] -0.052 | [8] -0.085 | [9] 0.061

MRPL14 (UniProt Q6P1L8)
inactive: erlotinib -0.013 | [1] 0.018 | [2] 0.098 | [3] -0.007 | [4] -0.109 | [5] 0.017 | [6] -0.002 | [7] 0.051 | [8] -0.021 | [9] -0.056

MON1B (UniProt Q7L1V2)
inactive: erlotinib 0.016 | [1] 0.04 | [2] -0.021 | [3] 0.023 | [4] 0.089 | [5] -0.01 | [6] 0.066 | [7] -0.004 | [8] -0.005 | [9] -0.006

MRPL16 (UniProt Q9NX20)
inactive: erlotinib -0.168 | [1] -0.112 | [2] -0.073 | [3] 0.051 | [4] -0.026 | [5] 0.011 | [6] -0.006 | [7] 0.073 | [8] -0.027 | [9] -0.196

MRPL39 (UniProt Q9NYK5)
inactive: erlotinib -0.079 | [1] -0.075 | [2] -0.131 | [3] 0.103 | [4] -0.028 | [5] -0.021 | [6] 0.089 | [7] 0.04 | [8] 0.009 | [9] -0.061

MRPL28 (UniProt Q13084)
inactive: erlotinib -0.117 | [1] -0.065 | [2] -0.155 | [3] 0.254 | [4] -0.042 | [5] -0.041 | [6] 0.05 | [7] 0.16 | [8] -0.076 | [9] -0.305

MPHOSPH10 (UniProt O00566)
inactive: erlotinib -0.079 | [1] -0.005 | [2] -0.412 | [3] -0.023 | [4] 0.031 | [5] 0.061 | [6] 0.07 | [7] -0.004 | [8] 0.024 | [9] -0.023

MLX (UniProt Q9UH92)
inactive: erlotinib 0.038 | [1] 0.135 | [2] -0.057 | [3] 0.062 | [4] 0.032 | [5] -0.094 | [6] -0.041 | [7] -0.076 | [8] -0.012 | [9] -0.143

MOGS (UniProt Q13724)
inactive: erlotinib -0.038 | [1] 0.003 | [2] -0.044 | [3] 0.02 | [4] 0.019 | [5] -0.007 | [6] 0.027 | [7] 0.015 | [8] -0.02 | [9] -0.05

MINK1 (UniProt Q8N4C8)
inactive: erlotinib -0.05 | [1] 0.053 | [2] -0.071 | [3] 0.036 | [4] -0.045 | [5] 0.001 | [6] -0.064 | [7] -0.203 | [8] -0.003 | [9] -0.008

MIF4GD isoform 3 (UniProt A9UHW6)
inactive: erlotinib 0.032 | [1] -0.038 | [2] -0.03 | [3] -0.002 | [4] 0.084 | [5] 0.055 | [6] -0.015 | [7] 0.013 | [8] 0.004 | [9] -0.028

MIS18A (UniProt Q9NYP9)
inactive: erlotinib 0.031 | [1] 0.037 | [2] -0.041 | [3] -0.001 | [4] -0.026 | [5] 0.031 | [6] 0.044 | [7] -0.019 | [8] 0.007 | [9] 0.005

MPRIP isoform 2 (UniProt Q6WCQ1)
inactive: erlotinib 0.027 | [1] -0.018 | [2] 0 | [3] 0.041 | [4] 0.052 | [5] 0.103 | [6] -0.084 | [7] -0.018 | [8] 0.002 | [9] -0.196

MRM3 (UniProt Q9HC36)
inactive: erlotinib -0.097 | [1] -0.162 | [2] -0.389 | [3] 0.028 | [4] -0.008 | [5] -0.032 | [6] 0.136 | [7] -0.052 | [8] 0.038 | [9] -0.229

MRPL53 (UniProt Q96EL3)
inactive: erlotinib -0.045 | [1] -0.023 | [2] -0.226 | [3] 0.086 | [4] -0.095 | [5] 0.02 | [6] 0.017 | [7] 0.079 | [8] -0.055 | [9] -0.09

MRPL54 (UniProt Q6P161)
inactive: erlotinib -0.053 | [1] -0.089 | [2] -0.183 | [3] 0.095 | [4] -0.1 | [5] 0.032 | [6] -0.033 | [7] 0.032 | [8] 0.077 | [9] 0.079

MIOS (UniProt Q9NXC5)
inactive: erlotinib -0.023 | [1] -0.01 | [2] -0.056 | [3] 0.02 | [4] -0.029 | [5] 0.013 | [6] -0.037 | [7] -0.052 | [8] 0.019 | [9] -0.038

MRPL50 (UniProt Q8N5N7)
inactive: erlotinib -0.107 | [1] -0.033 | [2] 0.048 | [3] 0.004 | [4] -0.008 | [5] 0.066 | [6] 0.312 | [7] 0.072 | [8] -0.084 | [9] -0.073

MLEC (UniProt Q14165)
inactive: erlotinib -0.033 | [1] -0.009 | [2] -0.031 | [3] 0.018 | [4] 0.039 | [5] 0.01 | [6] -0.013 | [7] -0.002 | [8] -0.004 | [9] -0.008

MRE11 isoform 3 (UniProt P49959)
inactive: erlotinib 0.018 | [1] -0.079 | [2] 0.02 | [3] 0.037 | [4] 0.023 | [5] 0.036 | [6] -0.063 | [7] -0.02 | [8] -0.003 | [9] 0.063

MPHOSPH6 (UniProt Q99547)
inactive: erlotinib 0.083 | [1] -0.036 | [2] -0.233 | [3] -0.007 | [4] -0.003 | [5] 0.014 | [6] 0.011 | [7] 0.009 | [8] -0.046 | [9] -0.156

MRPL12 (UniProt P52815)
inactive: erlotinib -0.068 | [1] -0.06 | [2] 0.179 | [3] -0.005 | [4] 0.036 | [5] 0.095 | [6] 0.018 | [7] 0.068 | [8] -0.071 | [9] -0.101

MRPL38 (UniProt Q96DV4)
inactive: erlotinib -0.167 | [1] -0.125 | [2] -0.194 | [3] 0.114 | [4] -0.058 | [5] -0.021 | [6] -0.006 | [7] 0.146 | [8] 0.033 | [9] -0.215

MICU1 isoform 3 (UniProt Q9BPX6)
inactive: erlotinib -0.02 | [1] -0.026 | [2] -0.022 | [3] 0.002 | [4] -0.009 | [5] 0.007 | [6] -0.054 | [7] 0.008 | [8] 0.013 | [9] -0.015

MOB4 (UniProt Q9Y3A3)
inactive: erlotinib -0.056 | [1] 0.03 | [2] 0.069 | [3] 0.014 | [4] 0.009 | [5] 0.039 | [6] -0.004 | [7] -0.037 | [8] 0.024 | [9] 0.045

MPDU1 (UniProt O75352)
inactive: erlotinib -0.008 | [1] 0.069 | [2] 0.059 | [3] 0.001 | [4] 0.012 | [5] -0.002 | [6] -0.089 | [7] 0.011 | [8] 0.018 | [9] 0.136

MPLKIP (UniProt Q8TAP9)
inactive: erlotinib 0.004 | [1] -0.048 | [2] -0.028 | [3] -0.259 | [4] -0.014 | [5] 0.017 | [6] -0.044 | [7] -0.01 | [8] 0.028 | [9] -0.078

MRPL13 (UniProt Q9BYD1)
inactive: erlotinib -0.101 | [1] -0.08 | [2] -0.087 | [3] 0.037 | [4] -0.019 | [5] -0.053 | [6] 0.124 | [7] 0.075 | [8] 0.038 | [9] -0.14

MRPL21 (UniProt Q7Z2W9)
inactive: erlotinib -0.116 | [1] -0.034 | [2] -0.144 | [3] 0.081 | [4] -0.038 | [5] -0.032 | [6] 0.008 | [7] 0.132 | [8] 0.005 | [9] -0.192

MICOS13 (UniProt Q5XKP0)
inactive: erlotinib 0.008 | [1] 0.018 | [2] 0.053 | [3] -0.007 | [4] 0.001 | [5] 0.039 | [6] 0.051 | [7] 0.052 | [8] 0.007 | [9] 0.023
